Experimental data: the supplement of paper PMC8426693
Some of the results follow.

Columns and labels:
Assay in all cases: NMR binding call after quantification (hit when 2 of 3 NMR criteria are met) (binary (1 = binding, 0 = not binding)); higher = binding
Conditions in all cases: RNA concentration 10 µM; fragment concentration 200 µM; 293 K
SARS-CoV-2 5_SL7 RNA = test system: SARS-CoV-2 5_SL7 RNA
SARS-CoV-2 5_SL8 RNA = test system: SARS-CoV-2 5_SL8 RNA
[1] = test system: SARS-CoV-2 frameshift pseudoknot (PK) RNA
[2] = test system: SARS-CoV-2 attenuator hairpin (att HP) RNA

SMILES | NMR binding call (SARS-CoV-2 5_SL7 RNA) | NMR binding call (SARS-CoV-2 5_SL8 RNA) | NMR binding call [1] | NMR binding call [2]
c1ccc(CNC2CCNC2)cc1 (stereo not given) | 0 | 0 | 0 | 
N#Cc1ccc(NC(=O)c2cccs2)cc1 | 0 |  | 0 | 0
CC(C)(C)C(=O)NCCc1nc2ccccc2[nH]1 | 0 | 0 | 0 | 
CC(=O)N(C)c1ccccc1C(=O)O | 0 |  | 0 | 0
COC(=O)Nc1ccc(Cc2ccncc2)cc1 | 0 | 0 | 0 | 
N#Cc1ccc(N2CCNCC2)c(F)c1 | 0 | 0 | 0 | 0
CN(C)Cc1nc(C2(N)CCCC2)no1 | 0 | 0 | 0 | 
COCC(=O)NCc1ccccc1 | 0 | 0 | 0 | 0
CCNc1ccc(C)nn1 | 0 | 0 | 0 | 
COC(C)c1nc(-c2cnoc2C)cs1 (stereo not given) | 0 | 0 | 0 | 
Cn1cc(CNC(=O)c2ccco2)cn1 | 0 | 0 | 0 | 0
Cc1ccc(NC(=O)c2ccccc2C)c(O)c1 | 0 | 0 | 0 | 
Cc1ccc(N2CCN(C(N)=O)CC2)cc1 | 0 | 0 | 0 | 
COc1ccc(NCc2ccccc2O)cc1 | 0 | 0 | 0 | 
CNCc1cnn(-c2ccccc2)c1 | 0 |  | 0 | 0
CCN1N=C(C(F)(F)F)CC1=O | 0 | 0 | 0 | 
CCc1csc(-c2c[nH]cn2)n1 | 0 | 0 | 0 | 0
Oc1ncc(NCCc2ccccc2)c(O)n1 | 0 | 0 | 0 | 0
OC1CN(C(c2ccccc2)c2ccccc2)C1 | 0 | 0 | 0 | 
N#CCC(=O)Nc1ccc(Cl)cc1 | 0 | 0 | 0 | 
COCC1CN(c2ccccn2)CCO1 (stereo not given) | 0 | 0 | 0 | 
CCC(NC)c1ccncc1 (stereo not given) | 0 |  | 0 | 0
CCOC(=O)N1CCOCC1 | 0 | 0 | 0 | 0
c1ccc(SCCN2CCOCC2)cc1 | 0 | 0 | 0 | 

Four neighbouring compounds out of the list so far, quoted:
SMILES | NMR binding call (SARS-CoV-2 5_SL7 RNA) | NMR binding call (SARS-CoV-2 5_SL8 RNA) | NMR binding call [1] | NMR binding call [2]
CCN1N=C(C(F)(F)F)CC1=O | 0 | 0 | 0 | 
CCc1csc(-c2c[nH]cn2)n1 | 0 | 0 | 0 | 0
Oc1ncc(NCCc2ccccc2)c(O)n1 | 0 | 0 | 0 | 0
OC1CN(C(c2ccccc2)c2ccccc2)C1 | 0 | 0 | 0 | 

Remaining list, next part

SMILES | NMR binding call (SARS-CoV-2 5_SL7 RNA) | NMR binding call (SARS-CoV-2 5_SL8 RNA) | NMR binding call [1] | NMR binding call [2]
CNc1nccc(OC)n1 | 0 | 0 | 0 | 
Cc1occc1C(=O)Nc1ccncc1 | 0 | 1 | 1 | 
Cl.O=C(CC(F)(F)F)N1CCNCC1 | 0 | 0 | 0 | 0
CC1CCCCN1C(=O)c1cnccn1 (stereo not given) | 0 | 0 | 0 | 0
COC(=O)c1ccncc1 | 0 | 0 | 0 | 0
CC(C)(C)NC(=O)Cn1ccc(C(F)(F)F)n1 | 0 | 0 | 0 | 
CS(=O)(=O)NC1CCNCC1 | 0 | 0 | 0 | 0
CNC(=O)c1c(-c2ccc(F)cc2)noc1C | 0 | 0 | 0 | 0
Cc1cccc(NC(=O)CN2CCOCC2)c1C | 0 | 0 | 0 | 
FC(F)(F)c1ccc(CN2CCOCC2)cc1 | 0 | 0 | 0 | 
CCN(CC)c1cccc(O)c1 | 0 | 0 | 0 | 
CC(N)c1cn(-c2ccccc2)nn1.Cl (stereo not given) | 0 |  | 0 | 0
O=C(NCCc1ccncc1)c1ccccc1F | 0 | 0 | 0 | 
Fc1ccccc1NCc1cc[nH]n1 | 0 | 0 | 0 | 0
CC(Oc1ccc(C#N)cc1)C(N)=O (stereo not given) | 0 | 0 | 0 | 0
CCc1nc(-c2ccc(Cl)cc2)no1 | 0 |  | 0 | 0
c1ccc(CN2CCC(n3cccc3)CC2)cc1 | 0 |  | 0 | 0
CC(=O)Nc1ccncc1C | 0 |  | 0 | 
CCOc1ccc(C(=O)Nc2ccccc2)cc1 | 0 |  | 0 | 0
Cc1nccc(N2CCC(N)CC2)n1 | 0 |  | 1 | 
O=C(NO)c1ccc2ccccc2n1 | 0 |  | 0 | 0
COC(=O)Nc1nc2c(C)cccc2s1 |  | 0 | 0 | 0
c1cc(-c2noc(C3CCCCC3)n2)ccn1 |  | 0 | 0 | 0
O=C(Nc1cccnc1)c1cnn2cccnc12 | 0 |  | 0 | 0
